Measurements taken from PubChem BioAssay AID493014 (National Center for Advancing Translational Sciences (NCATS), 2011).
The list shows a part of the results. Further columns of the screen follow, without active or inactive calls. Most of these compounds were active or inconclusive in the main read-out, so they are no random draw. Potencies come from curve fits of mixed quality, noted in brackets.

Assay: qHTS Assay to Find Inhibitors of Chronic Active B-Cell Receptor Signaling
Conditions: ABC-DLBCL IkBa-CBG/CBR reporter, luminescence ratio (green luciferase fused to IkBa over red control in TMD8 lymphoma cells), 4 h
Summary of the method: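 Compounds up to 46 uM were incubated four hours with TMD8 cells whose green CBG68 luciferase is fused to IkappaBalpha; red CBR luminescence normalised the signal, and concentration-effect curves were fitted to fusion, red and ratio data.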

[1] = measured here: CBR red luminescence, cell number

| SMILES | AC50 [1] | AC50 (measured here: IkBa-CBG green luminescence) |
| --- | --- | --- |
| O=C(Nc1ccc(F)cc1F)c1cc(-c2ccc3c(c2)OCO3)on1 | 0.0891 µM [falling, full curve, poor fit] | – |
| Cc1cc(C)cc(OCc2ccc(C(=O)O)o2)c1 | 20.6 µM [falling, single point] | – |
| COc1nc(Cl)cn(-c2ccc(Cl)cc2)c1=O | 0.82 µM [falling, full curve] | – |
| Cc1ccc(Nc2nc3nonc3[nH]c2=O)cc1C | 16.4 µM [falling, partial curve, poor fit] | – |
| O=C(c1ccccc1)c1c[nH]c(C(=O)NNc2ccccc2)c1 | 7.94 µM [falling, partial curve] | – |
| CCN(Cc1ccncc1)C(=O)c1ccccc1NS(=O)(=O)c1ccc(Br)cc1 | 0.224 µM [rising, full curve, poor fit] | – |
| CCOc1ccc(-n2c(-c3ccco3)n[nH]c2=S)cc1 | 0.562 µM [rising, partial curve, poor fit] | – |
| N#Cc1ccc(CSc2nc(N)cc(N)n2)cc1 | 22.4 µM [rising, single point] | – |
| COCCn1c(C)cc(/C=C(\C#N)C(=O)OCC(=O)Nc2ccc(S(N)(=O)=O)cc2)c1C | 14.6 µM [rising, partial curve, poor fit] | – |
| Nc1ccccc1C(=O)N=Nc1[nH]c(N)c2ccccc12 | 9.2 µM [falling, partial curve] | – |
| N#Cc1ccccc1NC(=O)c1cccc(COc2ccc(Cl)cc2Cl)c1 | 0.92 µM [rising, full curve] | 25.9 µM [falling, partial curve, poor fit] |
| Cc1cc(F)c(F)c(C(=O)N2CCN(C)CC2)c1Cl | 15.8 µM [rising, partial curve, poor fit] | – |
| Cc1csc(NC(=O)c2ccc(COc3ccccc3)o2)n1 | 14.1 µM [falling, partial curve] | – |
| COc1ccccc1N1CCN(c2nc3ccccc3nc2C(C#N)C(=O)OC(C)C)CC1 (stereo not drawn) | 29.1 µM [falling, single point] | – |
| COc1ccc(Cc2nc(-c3ccc(Cl)cc3)no2)cc1 | 0.103 µM [rising, full curve, poor fit] | – |
| O=C(C[n+]1ccc2ccccc2c1)c1ccccc1 | 0.631 µM [rising, partial curve, poor fit] | – |
| COc1cc(OC)cc(C(=O)N[C@@H](CCSC)c2nc3ccccc3[nH]2)c1 | 35.5 µM [falling, single point] | – |
| O=C(c1ccc(Cl)cc1)N1CCCC(c2ccccc2)=N1 | 0.447 µM [falling, full curve] | – |
| Cc1cc(C(=O)Nc2nc3ccc(Cl)cc3s2)nn1C | 2 µM [falling, full curve, poor fit] | – |
| O=C(/C=C/c1ccc(F)cc1)NCCCN1CCN(CCCNC(=O)/C=C/c2ccc(F)cc2)CC1 | 0.164 µM [rising, full curve, poor fit] | – |
| COc1cc(N)c(Cl)cc1C(=O)OCC(=O)Nc1cccnc1Cl | 6.51 µM [rising, single point] | – |

By substructure: the entries above containing a furan ring, fused or not.

| SMILES | AC50 [1] | AC50 (measured here: IkBa-CBG green luminescence) |
| --- | --- | --- |
| Cc1cc(C)cc(OCc2ccc(C(=O)O)o2)c1 | 20.6 µM [falling, single point] | – |
| CCOc1ccc(-n2c(-c3ccco3)n[nH]c2=S)cc1 | 0.562 µM [rising, partial curve, poor fit] | – |
| Cc1csc(NC(=O)c2ccc(COc3ccccc3)o2)n1 | 14.1 µM [falling, partial curve] | – |

Next part

| SMILES | AC50 [1] | AC50 (measured here: IkBa-CBG green luminescence) |
| --- | --- | --- |
| CN(C)S(=O)(=O)c1cccc(NC(=S)Nc2cccc3cnccc23)c1 | 35.5 µM [falling, single point] | – |
| CCOc1ccc(/C=C2\CCc3ccccc3C2=O)cc1 | 2.51 µM [rising, partial curve, poor fit] | – |
| O=C(N/N=C/C=C/c1ccco1)c1cccc([N+](=O)[O-])c1 | 16.4 µM [rising, single point] | – |
| Cn1cccc1C(=O)NC(=O)COC(=O)CNC(=O)c1ccc(Cl)cc1Cl | 15.8 µM [rising, partial curve, poor fit] | – |
| COC(=O)Cc1ccc(NC(=S)NC2CC2)cc1 | 20 µM [rising, single point] | – |
| COc1cccc(C(=O)NNC(=O)C2CCCO2)c1 (stereo not drawn) | 15.8 µM [falling, partial curve, poor fit] | – |
| CC(=NNC(=O)c1ccc(NS(=O)(=O)c2ccc(Br)cc2)cc1)c1cccnc1 | 13 µM [falling, partial curve] | – |
| Cc1csc(NC(=O)CCNC(=O)c2ccccc2Cl)n1 | 8.91 µM [falling, partial curve, poor fit] | – |
| CN(C)C(=O)c1ccc2c(c1)C1C3CCC(C3)C1C(c1ccccc1)N2 (stereo not drawn) | 8.2 µM [falling, partial curve, poor fit] | – |
| CC(/C=C/c1ccccc1)=N/NC(=O)c1cnccn1 | 0.411 µM [rising, full curve, poor fit] | – |
| O=C(CCS(=O)(=O)c1ccccc1)Nc1ccc(-c2nc3ccccc3s2)cc1 | 0.116 µM [falling, full curve] | – |
| Cc1nc(-c2ccccc2)sc1-c1nc(-c2ccncc2)ncc1S(=O)(=O)c1ccccc1 | 0.891 µM [rising, full curve, poor fit] | – |
| O=C(NNC(=O)c1cccs1)c1cccc(F)c1 | 12.6 µM [falling, single point] | – |
| Cc1sc2ncnc(Sc3nnnn3-c3ccccc3)c2c1C | 3.55 µM [falling, partial curve] | – |
| CCOC(=O)N1CCC(N2CCN(S(=O)(=O)c3ccc(Cl)cc3)CC2)CC1 | 0.58 µM [falling, partial curve, poor fit] | – |
| O=C(O)c1cc(-c2ccccc2)n(-c2ccc(Cl)cc2Cl)n1 | 6.31 µM [falling, single point] | – |
| O=C(O)C(Cc1ccccc1)N=Cc1c(O)c2ccccc2oc1=O (stereo not drawn) | 8.91 µM [falling, partial curve, poor fit] | – |
| Cc1ccc(OCC(=O)Nc2ccc(N3CCN(C(=O)c4ccco4)CC3)cc2)cc1C | 35.5 µM [falling, single point] | – |
| Cc1ccc(/C=C/c2nc3ccccc3n2S(=O)(=O)c2ccc(Br)cc2)cc1 | 11.2 µM [falling, partial curve, poor fit] | – |
| Cc1csc(NC(=O)c2cccc(S(=O)(=O)N3CCCCC3)c2)n1 | 9.2 µM [falling, partial curve, poor fit] | – |
| O=C(C1CC1)N1CCc2cc(Br)cc(S(=O)(=O)NCc3ccc4c(c3)OCO4)c21 | 22.4 µM [falling, single point] | – |
